PubChem BioAssay AID1259405, NCATS – 2018
The deposit covers about 50,000 reagents; below is an unselected part. About 4,000 of them (8%) were called active. 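Mouse siRNA library applied to hamster cells; one well for each siRNA.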 The numbers tell different reagents against one gene apart.

Assay: 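Mouse-designed siRNAs used to find CHO productivity engineering targets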 (primary screen)
System: Chinese hamster CHO-K1 ovary cells with stable secreted eGFP expression
Reagents: single siRNA against mouse genes, 0.8 pmol siRNA per well (2 µl of 400 nM stock)
Duration: 3 days
Detection: 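Per-well intracellular GFP measured by laser scanning cytometry, plus viability from ATP luminescence, each relative to plate median of non-targeting control wells, in %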
Direction: GFP, % of control: higher = more GFP per well, higher productivity; viability (ATP), % of control: higher = more viable cells (more ATP)
Rule for the call: 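a knock-down is called active if GFP reaches 120% or more of non-targeting control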

Gprasp3 #1
- GFP, % of control: 36.6
- viability (ATP), % of control: 35.4
- outcome: inactive

Gprasp3 #2
- GFP, % of control: 47.6
- viability (ATP), % of control: 71.1
- outcome: inactive

Gprasp3 #3
- GFP, % of control: 68.8
- viability (ATP), % of control: 75.6
- outcome: inactive

Sox11 #1
- GFP, % of control: 91.3
- viability (ATP), % of control: 80.5
- outcome: inactive

Sox11 #2
- GFP, % of control: 27.1
- viability (ATP), % of control: 29.5
- outcome: inactive

Sox11 #3
- GFP, % of control: 83
- viability (ATP), % of control: 99
- outcome: inactive

Otud5 #1
- GFP, % of control: 91.5
- viability (ATP), % of control: 83.2
- outcome: inactive

Otud5 #2
- GFP, % of control: 138
- viability (ATP), % of control: 60.1
- outcome: active

Otud5 #3
- GFP, % of control: 80.7
- viability (ATP), % of control: 72
- outcome: inactive

Ctla2a #1
- GFP, % of control: 71
- viability (ATP), % of control: 108
- outcome: inactive

Ctla2a #2
- GFP, % of control: 50
- viability (ATP), % of control: 71.2
- outcome: inactive

Ctla2a #3
- GFP, % of control: 78.2
- viability (ATP), % of control: 90.6
- outcome: inactive

A830031A19Rik #1
- GFP, % of control: 158
- viability (ATP), % of control: 113
- outcome: active

A830031A19Rik #2
- GFP, % of control: 63.1
- viability (ATP), % of control: 95.6
- outcome: inactive

A830031A19Rik #3
- GFP, % of control: 97.4
- viability (ATP), % of control: 102
- outcome: inactive

Gja1 #1
- GFP, % of control: 81.5
- viability (ATP), % of control: 75.5
- outcome: inactive

Gja1 #2
- GFP, % of control: 135
- viability (ATP), % of control: 97.3
- outcome: active

Gja1 #3
- GFP, % of control: 93.6
- viability (ATP), % of control: 124
- outcome: inactive

Rab5if #1
- GFP, % of control: 64.2
- viability (ATP), % of control: 84.4
- outcome: inactive

Rab5if #2
- GFP, % of control: 42.8
- viability (ATP), % of control: 54.6
- outcome: inactive

Rab5if #3
- GFP, % of control: 36.4
- viability (ATP), % of control: 46.5
- outcome: inactive

Rdh10 #1
- GFP, % of control: 65.7
- viability (ATP), % of control: 110
- outcome: inactive

Rdh10 #2
- GFP, % of control: 25
- viability (ATP), % of control: 34.8
- outcome: inactive

Rdh10 #3
- GFP, % of control: 132
- viability (ATP), % of control: 106
- outcome: active

Or5k14 #1
- GFP, % of control: 110
- viability (ATP), % of control: 114
- outcome: inactive

Or5k14 #2
- GFP, % of control: 63.1
- viability (ATP), % of control: 82.3
- outcome: inactive

Or5k14 #3
- GFP, % of control: 56.9
- viability (ATP), % of control: 103
- outcome: inactive

Or5k14 #4
- GFP, % of control: 60.7
- viability (ATP), % of control: 98.5
- outcome: inactive

Or5k14 #5
- GFP, % of control: 70
- viability (ATP), % of control: 98
- outcome: inactive

Or5k14 #6
- GFP, % of control: 70.6
- viability (ATP), % of control: 115
- outcome: inactive

Tti2 #1
- GFP, % of control: 42.4
- viability (ATP), % of control: 68
- outcome: inactive

Tti2 #2
- GFP, % of control: 54
- viability (ATP), % of control: 78
- outcome: inactive

Tti2 #3
- GFP, % of control: 107
- viability (ATP), % of control: 140
- outcome: inactive

Tmprss11e #1
- GFP, % of control: 48.8
- viability (ATP), % of control: 50.3
- outcome: inactive

Tmprss11e #2
- GFP, % of control: 68.8
- viability (ATP), % of control: 74.2
- outcome: inactive

Tmprss11e #3
- GFP, % of control: 109
- viability (ATP), % of control: 58.7
- outcome: inactive

H3f3b #1
- GFP, % of control: 106
- viability (ATP), % of control: 110
- outcome: inactive

H3f3b #2
- GFP, % of control: 116
- viability (ATP), % of control: 108
- outcome: inactive

H3f3b #3
- GFP, % of control: 33.4
- viability (ATP), % of control: 52.4
- outcome: inactive

Apoc1 #1
- GFP, % of control: 123
- viability (ATP), % of control: 116
- outcome: active

Apoc1 #2
- GFP, % of control: 38.7
- viability (ATP), % of control: 51
- outcome: inactive

Apoc1 #3
- GFP, % of control: 126
- viability (ATP), % of control: 94.5
- outcome: active

Records above whose gene name begins with H or h (3):
H3f3b #1
- GFP, % of control: 106
- viability (ATP), % of control: 110
- outcome: inactive

H3f3b #2
- GFP, % of control: 116
- viability (ATP), % of control: 108
- outcome: inactive

H3f3b #3
- GFP, % of control: 33.4
- viability (ATP), % of control: 52.4
- outcome: inactive
